Measurements taken from PubChem BioAssay AID248 (DTP/NCI, 2004).
The list does not hold the whole screen: its compounds were picked by chemical class. Other doses and runs of a compound may be missing. T/C is the treated group as % of the vehicle group. For survival time, this PubChem deposit counts one and a half times the control or more as active, and values a quarter to a half above the control carry no call in these data; other NCI protocols may use other cut-offs. Schedules are NCI's codes, taken here to give the interval after Q, in days (D) or hours (H), and the number of doses after X. Some T/C values carry the count of animals alive at the toxicity check (mostly the fifth day); without a count or a note in brackets, all were alive then. Some doses were run more than once; the results are listed from low to high. Some schedule codes hold Z or #, which are not explained here.

Test system: L1210 leukemia ip in BDF1 mice, survival T/C
Assay: NCI In Vivo Anticancer Drug Screen. Data for tumor model L1210 Leukemia (intraperitoneal) in B6D2F1 (BDF1) mice
Settings: T/C endpoint: mean survival time, higher T/C = longer survival

In the case of `NC(=O)c1[nH]cnc1/N=N\N(CCCl)CCCl`, the T/C (dose: 2.0 mg/kg/injection, schedule: Q#A X Z (ip), vehicle: carboxymethylcellulose (CMC)) is reported as 97 % of control [5 of 6 alive], the T/C (dose: 3.0 mg/kg/injection, schedule: Q#A X Z (ip), vehicle: carboxymethylcellulose (CMC)) is reported as 104 % of control and the T/C (dose: 3.2 mg/kg/injection, schedule: Q03HX040 (ip), vehicle: carboxymethylcellulose (CMC)) is reported as 117 % of control [7 of 8 alive]. The T/C (dose: 4.0 mg/kg/injection, schedule: Q01DX Z (ip), vehicle: carboxymethylcellulose (CMC)) was 113 % of control, the T/C (dose: 4.0 mg/kg/injection, schedule: Q03DX Z (ip), vehicle: carboxymethylcellulose (CMC)) was 103 % of control and the T/C (dose: 4.5 mg/kg/injection, schedule: Q#A X Z (ip), vehicle: carboxymethylcellulose (CMC)) was 122 % of control. For the same compound, the T/C (dose: 4.69 mg/kg/injection, schedule: Q06HX068 (oral), vehicle: steroid suspending solution) was 113 % of control, the T/C (dose: 6.0 mg/kg/injection, schedule: Q01DX006 (iv), vehicle: carboxymethylcellulose (CMC)) was 112 % of control and the T/C (dose: 6.0 mg/kg/injection, schedule: Q01DX Z (im), vehicle: carboxymethylcellulose (CMC)) was 104 % of control. The T/C (dose: 6.0 mg/kg/injection, schedule: Q01DX Z (ip), vehicle: carboxymethylcellulose (CMC)) was 119 % of control, the T/C (dose: 6.0 mg/kg/injection, schedule: Q01DX Z (oral), vehicle: carboxymethylcellulose (CMC)) was 112 % of control and the T/C (dose: 6.0 mg/kg/injection, schedule: Q03DX Z (ip), vehicle: carboxymethylcellulose (CMC)) was 110 % of control. The T/C (dose: 6.25 mg/kg/injection, schedule: Q01DX017 (ip), vehicle: carboxymethylcellulose (CMC)) was 98 % of control, the T/C (dose: 6.25 mg/kg/injection, schedule: Q#A X034 (ip), vehicle: carboxymethylcellulose (CMC)) was 102 % of control and the T/C (dose: 6.3 mg/kg/injection, schedule: Q03HX008 (ip), vehicle: carboxymethylcellulose (CMC)) was 108 % of control. For the same compound, the T/C (dose: 6.3 mg/kg/injection, schedule: Q03HX040 (ip), vehicle: carboxymethylcellulose (CMC)) was 125 % of control, the T/C (dose: 6.3 mg/kg/injection, schedule: Q08DX024 (ip), vehicle: carboxymethylcellulose (CMC)) was 117 % of control and the T/C (dose: 6.5 mg/kg/injection, schedule: Q#A X Z (ip), vehicle: carboxymethylcellulose (CMC)) was 122 and 151 % of control. The T/C (dose: 9.0 mg/kg/injection, schedule: Q01DX006 (iv), vehicle: carboxymethylcellulose (CMC)) was 120 % of control, the T/C (dose: 9.0 mg/kg/injection, schedule: Q01DX Z (im), vehicle: carboxymethylcellulose (CMC)) was 118 % of control and the T/C (dose: 9.0 mg/kg/injection, schedule: Q01DX Z (ip), vehicle: carboxymethylcellulose (CMC)) was 116 % of control. The T/C (dose: 9.0 mg/kg/injection, schedule: Q01DX Z (oral), vehicle: carboxymethylcellulose (CMC)) was 122 % of control, the T/C (dose: 9.0 mg/kg/injection, schedule: Q03DX Z (ip), vehicle: carboxymethylcellulose (CMC)) was 107 % of control and the T/C (dose: 9.37 mg/kg/injection, schedule: Q06HX068 (oral), vehicle: steroid suspending solution) was 114 % of control. The T/C (dose: 10.0 mg/kg/injection, schedule: Q#A X Z (ip), vehicle: carboxymethylcellulose (CMC)) was 236 % of control, the T/C (dose: 12.5 mg/kg/injection, schedule: Q01DX017 (ip), vehicle: carboxymethylcellulose (CMC)) was 95 and 112 % of control and the T/C (dose: 12.5 mg/kg/injection, schedule: Q02DX009 (ip), vehicle: carboxymethylcellulose (CMC)) was 112 % of control. For the same compound, the T/C (dose: 12.5 mg/kg/injection, schedule: Q03HX008 (ip), vehicle: carboxymethylcellulose (CMC)) was 121 % of control, the T/C (dose: 12.5 mg/kg/injection, schedule: Q03HX008 (ip), vehicle: water) was 149 % of control and the T/C (dose: 12.5 mg/kg/injection, schedule: Q03HX040 (ip), vehicle: carboxymethylcellulose (CMC)) was 208 % of control. The T/C (dose: 12.5 mg/kg/injection, schedule: Q08DX024 (ip), vehicle: carboxymethylcellulose (CMC)) was 141 % of control, the T/C (dose: 12.5 mg/kg/injection, schedule: Q#A X034 (ip), vehicle: carboxymethylcellulose (CMC)) was 107 % of control and the T/C (dose: 13.0 mg/kg/injection, schedule: Q01DX006 (iv), vehicle: carboxymethylcellulose (CMC)) was 130 and 139 % of control. The T/C (dose: 13.0 mg/kg/injection, schedule: Q01DX Z (im), vehicle: carboxymethylcellulose (CMC)) was 131 % of control, the T/C (dose: 13.0 mg/kg/injection, schedule: Q01DX Z (ip), vehicle: carboxymethylcellulose (CMC)) was 139 and 143 % of control and the T/C (dose: 13.0 mg/kg/injection, schedule: Q01DX Z (oral), vehicle: carboxymethylcellulose (CMC)) was 124 % of control. The T/C (dose: 13.0 mg/kg/injection, schedule: Q01DX Z (sc), vehicle: carboxymethylcellulose (CMC)) was 115 % of control, the T/C (dose: 13.0 mg/kg/injection, schedule: Q03DX Z (ip), vehicle: carboxymethylcellulose (CMC)) was 119 % of control and the T/C (dose: 13.5 mg/kg/injection, schedule: Q03HX016 (ip), vehicle: carboxymethylcellulose (CMC)) was 180 % of control. For the same compound, the T/C (dose: 16.5 mg/kg/injection, schedule: Q#A X Z (ip), vehicle: carboxymethylcellulose (CMC)) was 208 % of control, the T/C (dose: 18.7 mg/kg/injection, schedule: Q01DX009 (oral), vehicle: carboxymethylcellulose (CMC)) was 121 % of control and the T/C (dose: 18.75 mg/kg/injection, schedule: Q06HX020 (oral), vehicle: steroid suspending solution) was 110 % of control. The T/C (dose: 18.75 mg/kg/injection, schedule: Q06HX068 (oral), vehicle: steroid suspending solution) was 155 % of control, the T/C (dose: 20.0 mg/kg/injection, schedule: Q01DX001 (ip), vehicle: carboxymethylcellulose (CMC)) was 119 % of control and the T/C (dose: 20.0 mg/kg/injection, schedule: Q01DX006 (iv), vehicle: carboxymethylcellulose (CMC)) was 159 and 178 % of control [5 of 6 alive]. For the same compound, the T/C (dose: 20.0 mg/kg/injection, schedule: Q01DX Z (im), vehicle: carboxymethylcellulose (CMC)) was 141 % of control, the T/C (dose: 20.0 mg/kg/injection, schedule: Q01DX Z (ip), vehicle: carboxymethylcellulose (CMC)) was 331 % of control and the T/C (dose: 20.0 mg/kg/injection, schedule: Q01DX Z (oral), vehicle: carboxymethylcellulose (CMC)) was 139 % of control. For the same compound, the T/C (dose: 20.0 mg/kg/injection, schedule: Q01DX Z (sc), vehicle: carboxymethylcellulose (CMC)) was 132 % of control, the T/C (dose: 20.0 mg/kg/injection, schedule: Q03DX Z (ip), vehicle: carboxymethylcellulose (CMC)) was 134 % of control and the T/C (dose: 21.75 mg/kg/injection, schedule: Q01DX009 (ip), vehicle: other) was 151, 152, 166 % of control. The T/C (dose: 22.5 mg/kg/injection, schedule: Q03HX016 (ip), vehicle: carboxymethylcellulose (CMC)) was 207 % of control, the T/C (dose: 23.0 mg/kg/injection, schedule: Q01DX017 (ip), vehicle: carboxymethylcellulose (CMC)) was 100 % of control and the T/C (dose: 23.0 mg/kg/injection, schedule: Q01DX Z (ip), vehicle: carboxymethylcellulose (CMC)) was 110 % of control. The T/C (dose: 25.0 mg/kg/injection, schedule: Q01DX009 (ip), vehicle: carboxymethylcellulose (CMC)) was 163 % of control, the T/C (dose: 25.0 mg/kg/injection, schedule: Q01DX009 (ip), vehicle: water) was 212 % of control and the T/C (dose: 25.0 mg/kg/injection, schedule: Q01DX017 (ip), vehicle: carboxymethylcellulose (CMC)) was 117, 144, 210 % of control. The T/C (dose: 25.0 mg/kg/injection, schedule: Q01DX Z (ip), vehicle: carboxymethylcellulose (CMC)) was 173 % of control, the T/C (dose: 25.0 mg/kg/injection, schedule: Q02DX009 (ip), vehicle: carboxymethylcellulose (CMC)) was 117, 130, 144 % of control and the T/C (dose: 25.0 mg/kg/injection, schedule: Q03HX008 (ip), vehicle: carboxymethylcellulose (CMC)) was 146 % of control. The T/C (dose: 25.0 mg/kg/injection, schedule: Q03HX008 (ip), vehicle: water) was 534 % of control and the T/C (dose: 25.0 mg/kg/injection, schedule: Q03HX040 (ip), vehicle: carboxymethylcellulose (CMC)) was 235 % of control.
